Out of some 52,000 sequences screened, about 210 (0.4%) were called active.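 The calls were made as follows: active = gene whose silencing raises cell survival under the drug, median off-target-corrected z-score across its silencing RNAs 2 or more; inactive = the rest.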 The list shows a part of the results.
Assay: Resistance to Poly (ADP-Ribose) Polymerase inhibitor: Gene Identification via Genome-wide siRNA Screen
Conditions: mouse BRCA2 R2336H ES cells, olaparib, CellTiter-Glo viability; stronger effect = higher value
How it was run: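 Mouse BRCA2 R2336H ES cells were reverse-transfected with siRNA (20 nM final), treated at 48 h with 500 nM olaparib, and read by CellTiter-Glo after 72 h. Scores: MAD-based z per siRNA, median per gene, seed off-target correction.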

Sequence | z-score
GGAACAUCCAGUCAUUUUATT against 4732429I09Rik | inactive: 0.367
GGAUCUUUCCAGGUUACAATT against Dmrta1 | inactive: 0.663
GGAUCAUCAACCAUCUAAUTT against Sfrs7 | inactive: -0.775
GCCAGUGUUGGUUAUAAAATT against G1p2 | inactive: 0.0725
GGAUGAAUGCAGCUUCCAUTT against Myh14 | inactive: 0.351
GGAAGCUGUCUUCAAGUCCTT against Phf7 | inactive: 1.36
GGUCAAUGGCAUGUUGAUCTT against Mc2r | inactive: -0.394
GGGCACAGAGUGUAUCAUCTT against Wap | inactive: 0.426
GGGUCUUCUUCCUGAGUGUTT against 1190002A17Rik | inactive: -0.491
GGAAGUUCAAAUUUGAAUGTT against 5730466H23Rik | inactive: 1.55
GGAUUACGGAUCCAAAGUCTT against Eif2b4 | inactive: -2.06
GGACUUUCUGGUCUGCCCUTT against Gli | inactive: -0.0198
CCAAUGAUGGAGCUGAAGCTT against Ranbp1 | inactive: 0.439
GCCAUUGUUACUGACUGCCTT against 4931414L13Rik | inactive: -0.484
GGCAUGAUAAAGAAUGUCATT against Cxcl7 | inactive: -1.38
GGGUUAAUCAUAAAGACUGTT against 9430071P14Rik | inactive: -0.443
GGUUAUCGUUCAGUUGGUCTT against Nfkb1 | inactive: 0.0728
GGUGAUCGGCUCUUAGAGATT against Uncx4.1 | inactive: 0.153
GCUUGGUACUACAAUGCCUTT against Sele | inactive: -0.649
GGUACUUCUCAUGGAUAAATT against Vps45 | inactive: -1.05
CGAAGUGAAAAGUAUGACCTT against 1700108M19Rik | inactive: -0.726
CCAAGCGAAUGUCAAAAUATT against A230106N23 | inactive: 0.232
GGUGAAGAGCUUCUUGAUCTT against Zfyve27 | inactive: 0.536

Sequence | z-score
CCCAGCUUUUCAACUUGCUTT against Tmc4 | inactive: 0.714
GGUGGCAUACACAUUUGAUTT against Mvd | inactive: -1.25
GGAACCUCUUGGACAAAGATT against Cpne5 | inactive: -2.57
CCUAAGUGCUCCAUGGUACTT against 2810438M17Rik | inactive: -1.25
GGUCAACAAGUAUAUCAACTT against 0610007A15Rik | inactive: 0.246
GGUUCCAAGUCAAAGAGUUTT against Foxl1 | inactive: -1.74
GGUGUAUGCCAUUGAGACCTT against Metap2 | inactive: 0.19
GGACAACAUUAAUGUCAAGTT against Rab3a | inactive: 0.967
GGAAAGUUGUAUUUGAUGUTT against Nudt7 | inactive: 0.299
GGGCUUUUCAGACUGUUUGTT against Nrn1 | inactive: -0.0371
GGAGUGCUUGAAGUUAUUATT against Zw10 | inactive: 0.543
GGCCACUUCGUGUUCUUUUTT against Hoxa10 | inactive: -2
GGUCUGGAAAACCAGCUUATT against D630039A03Rik | inactive: 0.495
GCUUCUAAUUGGAGAUUGCTT against Ngfrap1 | inactive: 1.44
CGAGCUGUCCAAACACUGUTT against Mlf1ip | inactive: 0.1
GGAUGUACACAGAAGGCCATT against Sucnr1 | inactive: -0.907
GCUGAAGGGACUCUAACCATT against Ihh | inactive: 0.928
GGAAGAGGCAGCUUUUGGATT against Impg2 | inactive: -0.418
GGAAGAGCACUUGAGGAUGTT against Bat4 | inactive: 2.17
GGAAUUUGAAACUUACGGCTT against Oc90 | inactive: -0.682
CCCUAUAGACCAGUGCAAUTT against Cnih | inactive: 0.407
GCAAGAUUCAGAGUGCAGCTT against 4932441K18 | inactive: -0.922
GGCCCUCAAAAAUAAGUUUTT against Hsd3b3 | inactive: 0.491

Not a retest: entries from further up.
Sequence | z-score
GGUGUAUGCCAUUGAGACCTT against Metap2 | inactive: 0.19
GGACAACAUUAAUGUCAAGTT against Rab3a | inactive: 0.967
GGAAAGUUGUAUUUGAUGUTT against Nudt7 | inactive: 0.299

(listing goes on)

Sequence | z-score
CCUGUAUAGGCAGCCUAGATT against BC036313 | inactive: -2.09
GGAUGAGGUAUUAACAAGUTT against 2310036O22Rik | inactive: -1.25
GCUUGGCUAUCAAAACUUCTT against DXImx40e | inactive: 1.58
GGAGACCAGGAAGUGUUGATT against Gal | inactive: -0.125
CCGCUGAUGAAGAUAGAGATT against 4931414P19Rik | inactive: -0.326
CGAUCCACUCCCUGAUUCUTT against Gpr151 | inactive: -0.977
CGUACAAACAUAACUGUGGTT against Acp5 | inactive: 1.23
GGCUGUCACUUUAUAGGCATT against Wrnip1 | inactive: 0.316
AACUUCACUAUCUUGUUGGTT against Olfr594 | inactive: 0.493
GGUGAAAGCUGUUAUCGAATT against Il17e | inactive: 0.276
GCACUUCCGGAAAAAGCGATT against Eva1 | inactive: -0.0638
GCUUCAAUAUCUUCGUUGCTT against Olfr1461 | inactive: -0.46
GCCAAUCCUUCAUAGUUUUTT against Kif18a | inactive: -0.676
GGUGAAGGCCUCCAUAUAUTT against A630085K21 | inactive: -2.34
GGAAUCACGAAGGAGAUUCTT against MGC59529 | inactive: -1.1
GCUUUAGGUCCAUUCGGAGTT against Pkd2l2 | inactive: 0.743
CGAGGAAGAGAAUUUCUAUTT against Myc | inactive: 0.0795
CGCAAGAGGGAUGAAGGUATT against Pax5 | inactive: -1.1
GGAGACGUGUCUGAAAGACTT against Glp2r | inactive: -0.752
UUAGCCACUCAUUGUUCCATT against Olfr1303 | inactive: -1.49
GGAAGAAAACAUGGAAGAATT against Usp47 | active: 3.28

— PubChem BioAssay AID1347423 (Functional Genomics Laboratory (NCATS/FGL), 2020)
